Measured data: PubChem BioAssay AID1259254 (NCATS, 2017)
This is a random part of about 59,000 reagents tested. About 1,550 of them (2.6%) count as active. 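G2 share is only a proxy for re-replication; each gene was hit by three separate siRNAs, and active genes were retested.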 Raw values are not corrected between plates. Not stated in the record: the amount of reagent.

- Screen: 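Gene knock-downs that lead to re-replication, shown by excess G2 DNA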 (primary screen)
- Cell system: human HCT116 colorectal cancer cells
- Reagents: single siRNA against human genes
- Duration: 3 days
- Read-out: 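Nuclei stained with Hoechst and imaged; cell-cycle phase assigned by DNA content; G2 share scaled per plate, non-targeting siRNA 0%, GMNN siRNA 100%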
- Reading the numbers: G2 robust z-score and G2 cells, % of GMNN control: higher = more G2 cells, more excess DNA replication; raw share of cells in G2: higher = larger share of cells with G2 DNA content
- Call rule: 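Active siRNAs have a G2 robust z of 5 or more median absolute deviations over the median, which in these data means about 38% or higher of GMNN control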

gene	PubChem SID	G2 robust z-score	G2 cells, % of GMNN control	raw share of cells in G2 (%)	Call
BUB3 (BUB3 mitotic checkpoint protein)	SID160721671	0.00944	3.03	6.48	inactive
BUB3 (BUB3 mitotic checkpoint protein)	SID160721672	2.1	17.7	10.9	inactive
BUB3 (BUB3 mitotic checkpoint protein)	SID160721673	9.9	72.6	29	active
MIR550A3HG (MIR550A3 host gene)	SID160770007	1.4	12.8	8.61	inactive
MIR550A3HG (MIR550A3 host gene)	SID160770008	-0.12	2.12	4.01	inactive
MIR550A3HG (MIR550A3 host gene)	SID160770009	0.533	6.72	5.18	inactive
CDH6 (cadherin 6)	SID160740479	-1.38	-6.77	1.76	inactive
CDH6 (cadherin 6)	SID160740490	-0.611	-1.33	4.51	inactive
CDH6 (cadherin 6)	SID160740501	-0.762	-2.4	4.11	inactive
SPATA31E1 (SPATA31 subfamily E member 1)	SID160763817	0.845	8.91	6.89	inactive
SPATA31E1 (SPATA31 subfamily E member 1)	SID160763819	-0.232	1.33	3.56	inactive
SPATA31E1 (SPATA31 subfamily E member 1)	SID160763820	-0.266	1.09	3.6	inactive
VPS51 (VPS51 subunit of GARP complex)	SID160730128	3.55	27.9	18.4	inactive
VPS51 (VPS51 subunit of GARP complex)	SID160730139	-0.743	-2.26	3.26	inactive
VPS51 (VPS51 subunit of GARP complex)	SID160730149	-0.856	-3.05	2.33	inactive
DNAI3 (dynein axonemal intermediate chain 3)	SID160756541	1.21	11.5	8.5	inactive
DNAI3 (dynein axonemal intermediate chain 3)	SID160756542	-0.148	1.93	3.71	inactive
DNAI3 (dynein axonemal intermediate chain 3)	SID160756543	-0.531	-0.769	2.3	inactive
MRM1 (mitochondrial rRNA methyltransferase 1)	SID160749777	1.06	10.4	8.78	inactive
MRM1 (mitochondrial rRNA methyltransferase 1)	SID160749778	-0.433	-0.0771	4.27	inactive
MRM1 (mitochondrial rRNA methyltransferase 1)	SID160749779	-0.391	0.214	2.44	inactive
SCML1 (Scm polycomb group protein like 1)	SID160716379	-0.591	-1.19	4.14	inactive
SCML1 (Scm polycomb group protein like 1)	SID160716380	0.0635	3.41	5.09	inactive
SCML1 (Scm polycomb group protein like 1)	SID160716381	0.915	9.4	8.85	inactive
PPIAP66 (peptidylprolyl isomerase A pseudogene 66)	SID160725693	-0.89	-3.29	2.09	inactive
PPIAP66 (peptidylprolyl isomerase A pseudogene 66)	SID160733854	3.44	27.2	11.1	inactive
PPIAP66 (peptidylprolyl isomerase A pseudogene 66)	SID160769066	-0.776	-2.49	2.69	inactive
KLHL9 (kelch like family member 9)	SID160744672	-0.534	-0.79	4.04	inactive
KLHL9 (kelch like family member 9)	SID160744673	-0.672	-1.76	3.62	inactive
KLHL9 (kelch like family member 9)	SID160744674	0.00153	2.98	3.97	inactive
CRISP3 (cysteine rich secretory protein 3)	SID160728166	2.73	22.2	15.3	inactive
CRISP3 (cysteine rich secretory protein 3)	SID160728167	-0.509	-0.616	3.69	inactive
CRISP3 (cysteine rich secretory protein 3)	SID160728168	-0.00381	2.94	4.48	inactive
GBP4 (guanylate binding protein 4)	SID160755198	2.13	18	11.3	inactive
GBP4 (guanylate binding protein 4)	SID160755199	5.04	38.4	14.8	active
GBP4 (guanylate binding protein 4)	SID160755200	-0.943	-3.67	0.746	inactive
NDUFA9 (NADH:ubiquinone oxidoreductase subunit A9)	SID160777856	-0.189	1.64	5.99	inactive
NDUFA9 (NADH:ubiquinone oxidoreductase subunit A9)	SID160777857	0.525	6.66	5.39	inactive
NDUFA9 (NADH:ubiquinone oxidoreductase subunit A9)	SID160777858	0.114	3.77	6.96	inactive
CANX (calnexin)	SID160736218	-0.304	0.825	3.79	inactive
CANX (calnexin)	SID160736228	-0.513	-0.643	4.55	inactive
CANX (calnexin)	SID160736238	-0.381	0.289	3.21	inactive
KCTD1 (potassium channel tetramerization domain containing 1)	SID160763221	-0.0767	2.43	3.93	inactive
KCTD1 (potassium channel tetramerization domain containing 1)	SID160763222	3.16	25.2	11.9	inactive
KCTD1 (potassium channel tetramerization domain containing 1)	SID160763223	0.836	8.85	6.63	inactive
ZNF726P1 (zinc finger protein 726 pseudogene 1)	SID160770056	-0.63	-1.47	3.22	inactive
ZNF726P1 (zinc finger protein 726 pseudogene 1)	SID160770057	0.0993	3.67	4.58	inactive
ZNF726P1 (zinc finger protein 726 pseudogene 1)	SID160770058	1.1	10.7	6.45	inactive

Not a retest: an excerpt of the list.
gene	PubChem SID	G2 robust z-score	G2 cells, % of GMNN control	raw share of cells in G2 (%)	Call
MIR550A3HG (MIR550A3 host gene)	SID160770007	1.4	12.8	8.61	inactive
MIR550A3HG (MIR550A3 host gene)	SID160770008	-0.12	2.12	4.01	inactive
MIR550A3HG (MIR550A3 host gene)	SID160770009	0.533	6.72	5.18	inactive
CDH6 (cadherin 6)	SID160740479	-1.38	-6.77	1.76	inactive
CDH6 (cadherin 6)	SID160740490	-0.611	-1.33	4.51	inactive
CDH6 (cadherin 6)	SID160740501	-0.762	-2.4	4.11	inactive
